Results are given in words; binding and its absence hold for the method and conditions named. Some results given as binding are weak or reduced against the parent protein; the word gives no strength.
Assays:
[1] = molecular target: T1, cynomolgus monkey OSM (cOSM) (cynomolgus monkey); experiment: gp130 inhibition ELISA, purified antibodies
T1 sequence: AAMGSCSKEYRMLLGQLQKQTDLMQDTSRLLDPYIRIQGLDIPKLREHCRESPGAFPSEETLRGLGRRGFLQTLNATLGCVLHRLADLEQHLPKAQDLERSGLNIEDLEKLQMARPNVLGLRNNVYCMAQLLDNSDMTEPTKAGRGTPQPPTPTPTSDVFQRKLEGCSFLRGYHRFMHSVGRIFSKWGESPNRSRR

[2] = molecular target: T1, cynomolgus monkey OSM (cOSM) (cynomolgus monkey); experiment: gp130 inhibition ELISA, CHO supernatant

B1: humanised 15E10 antibody B4L2 (antibody, V domains shown)
VH: QVQLVESGGGVVQPGRSLRLSCAASGFSLTNYGVHWVRQAPGKGLEWVAVIWRGGSTDYNAAFMSRLTISKDNSKNTLYLQMNSLRAEDTAVYYCAKSPNSNFYWYFDVWGRGTLVTVSS
VL: EIVLTQSPATLSLSPGERATLSCSGSSSVSYMYWYQQKPGQAPRLLIEDTSNLASGIPARFSGSGSGTDYTLTISNLEPEDFAVYYCQQWSSYPPTFGQGTKLEIKR
binding [1]: binds | binding [2]: binds

B2: humanised 15E10 antibody B2L2 (antibody, V domains shown)
VH: QVQLVESGGGVVQPGRSLRLSCAASGFSLTNYGVHWVRQAPGKGLEWVAVIWRGGSTDYNAAFMSRFTISRDNSKNTLYLQMNSLRAEDTAVYYCAKSPNSNFYWYFDVWGRGTLV
VL: EIVLTQSPATLSLSPGERATLSCSGSSSVSYMYWYQQKPGQAPRLLIEDTSNLASGIPARFSGSGSGTDYTLTISNLEPEDFAVYYCQQWSSYPPTFGQGTKLEIK
binding [1]: binds

Reference: WO2005095457A2 (dated 2005)
